No constants are given. Whether binding was seen depends on the method and setting.
Experiments:
[1] = biological target: Af1502 (Archaeoglobus fulgidus) (UniProt O28770); experiment: crystal structure; SeMet-derivative, 1.6 Å; two monomers in the asymmetric unit; both purified
[2] = biological target: Af1502 (Archaeoglobus fulgidus) (UniProt O28770); experiment: NMR titration; NMR spectroscopy across a range of protein concentrations of Af1502; both purified
[3] = biological target: Af1502 (Archaeoglobus fulgidus) (UniProt O28770); experiment: SEC + other: static light scattering; analytical gel filtration and static light scattering of Af1502; both purified

Measured: binding

B1: Af1502 (protein, UniProt O28770 1-68)
chain: MITYKKLLDELKKEIGPIAKIFLNKAMESLGYDDVDDSNYKEILSVLKMNKELREYVEIVEERLEKEG
no binding: all assays above

— PMC4834066
